Results: US7994281 (EUROPEAN MOLECULAR BIOLOGY LABORATORY, dated 2011)
These are yes or no findings as the source states them, for the method shown.

Columns and labels:
murine RANK (receptor) [1] = molecular target: T1, murine RANK (receptor) (murine, UniProt O35305 31-214, limits assumed); test: condition: extract diluted 1:50, concentration not given; SPR (Biacore): clarified E. coli extract diluted 1:50 injected over immobilised DR4, DR5, DcR1 and RANK; bars are the response as a fraction of the DR5 response
T1 construct: Control surface in the SPR screening
T1 sequence (looked up): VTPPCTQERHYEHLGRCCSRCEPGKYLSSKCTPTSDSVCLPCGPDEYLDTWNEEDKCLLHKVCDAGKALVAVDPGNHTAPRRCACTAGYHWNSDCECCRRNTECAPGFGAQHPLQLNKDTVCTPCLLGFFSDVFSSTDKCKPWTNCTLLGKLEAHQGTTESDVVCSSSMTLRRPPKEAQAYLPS

murine RANK (receptor) [2] = molecular target: T1, murine RANK (receptor); test: condition: extract diluted 1:50, concentration not given; SPR (Biacore): clarified E. coli extract diluted 1:50 injected over immobilised DR4, DR5, DcR1 and RANK; bars are the response as a fraction of the DR4 response

Binder | binding (murine RANK (receptor) [1]) | binding (murine RANK (receptor) [2])
TRAIL mutant D269H (ligand) VRERGPQRVAAHITGTRGRSNTLSSPNSKNEKALGRKINSWESSRSGHSFLSNLHLRNGELVIHEKGFYYIYSQTYFRFQEEIKENTKNDKQMVQYIYKYTSYPDPILLMKSARNSCWSKDAEYGLYSIYQGGIFELKENDRIFVSVTNEHLIDMHHEASFFGAFLVG | no binding | no binding
TRAIL mutant I220M (ligand) VRERGPQRVAAHITGTRGRSNTLSSPNSKNEKALGRKINSWESSRSGHSFLSNLHLRNGELVIHEKGFYYIYSQTYFRFQEEIKENTKNDKQMVQYIYKYTSYPDPMLLMKSARNSCWSKDAEYGLYSIYQGGIFELKENDRIFVSVTNEHLIDMDHEASFFGAFLVG | no binding | no binding
TRAIL mutant R149D (ligand) VRERGPQRVAAHITGTRGRSNTLSSPNSKNEKALGDKINSWESSRSGHSFLSNLHLRNGELVIHEKGFYYIYSQTYFRFQEEIKENTKNDKQMVQYIYKYTSYPDPILLMKSARNSCWSKDAEYGLYSIYQGGIFELKENDRIFVSVTNEHLIDMDHEASFFGAFLVG | no binding | no binding
TRAIL mutant R149H (ligand) VRERGPQRVAAHITGTRGRSNTLSSPNSKNEKALGHKINSWESSRSGHSFLSNLHLRNGELVIHEKGFYYIYSQTYFRFQEEIKENTKNDKQMVQYIYKYTSYPDPILLMKSARNSCWSKDAEYGLYSIYQGGIFELKENDRIFVSVTNEHLIDMDHEASFFGAFLVG | no binding | no binding
